For at least one compound, name, drawing or mass did not settle the structure.
System: MEK2+ & CBX7+ ILCs
Test: MEK2+ and CBX7+ ILCs by FCM
Assay type: cell-based, human
Conditions: MEK1/2 inhibitor treatment

`CC(=O)Nc1cccc(-n2c(=O)n(C3CC3)c(=O)c3c(Nc4ccc(I)cc4F)n(C)c(=O)c(C)c32)c1` [Trametinib] was tested, and the “number of CBX7+ ILCs” value was “reduced”.
